# Source: patent US20110159049A1, “PHARMACEUTICAL COMPOSITION” (DAIICHI SANKYO COMPANY, LIMITED, priority 1999, published 2011)
# At least one structure is not confirmed: it was looked up by name or label, or the drawing left a doubt.
# Assay: Evaluation of effect of masking disagreeable taste: Dissolution Test 1 (purified water, paddle method)
# Format: physicochemical
# Settings: 500 ml purified water, 37° C., 100 rpm
structure (smiles),measurement,setting,value
"C[C@H]1COc2c(N3CCN(C)CC3)c(F)cc3c(=O)c(C(=O)O)cn1c23 [Drug alone, levofloxacin]",Results of elution test,10 seconds,58
same,Results of elution test,20 seconds,83
same,Results of elution test,30 seconds,93
same,Results of elution test,60 seconds,103
